Measurements taken from PMC7863878.

Target: V1-Ct-FLAG (FLAG-tagged TRPV1 C terminus) (rat)
Experiment: co-IP; HEK 293T cells co-transfected; Nonidet P-40 lysis buffer (20 mM Tris-HCl pH 7.4, 150 mM NaCl, 1 mM EDTA, 1% NP-40); IP with anti-FLAG; washes with buffer containing 0.5 M NaCl; immunoblot with anti-GFP, anti-HA, anti-FLAG

binding: no binding
B1: Kvβ1-GFP (protein, UniProt P63143 1-401)
chain: MQVSIACTEHNLKSRNGEDRLLSKQSSNAPNVVNAARAKFRTVAIIARSLGTFTPQHHISLKESTAKQTGMKYRNLGKSGLRVSCLGLGTWVTFGGQISDEVAERLMTIAYESGVNLFDTAEVYAAGKAEVILGSIIKKKGWRRSSLVITTKLYWGGKAETERGLSRKHIIEGLKGSLQRLQLEYVDVVFANRPDSNTPMEEIVRAMTHVINQGMAMYWGTSRWSAMEIMEAYSVARQFNMIPPVCEQAEYHLFQREKVEVQLPELYHKIGVGAMTWSPLACGIISGKYGNGVPESSRASLKCYQWLKERIVSEEGRKQQNKLKDLSPIAERLGCTLPQLAVAWCLRNEGVSSVLLGSSTPEQLIENLGAIQVLPKMTSHVVNEIDNILRNKPYSKKDYRS

Results are given in words; binding and its absence hold for the method and conditions named. In cells and extracts the contact can be indirect. Where a sequence is shown, tags or fusion partners need not be part of it.
